PubChem BioAssay AID720504 (National Center for Advancing Translational Sciences (NCATS), 2013)
About 10,000 (2.8%) of roughly 360,000 compounds were called active. Inconclusive results, whose numbers are uncertain, are shown with a selection of clear calls. Calls come from the whole dose curve; as a rule, active = well fitted inhibition curve with a large enough effect; inconclusive = small, poorly fitted or top-dose-only effect; inactive = flat fitted curve, though single readings scatter. Potencies beside an inconclusive call are fits to weak or partial responses and may not hold up.
% is set by controls: 0 for no effect and ±100 for the full control effect; potency is the fitted concentration of half-maximal effect.
Note: nearly all actives have a fitted effect of over 65% in size.
Throughout, for max response, negative = inhibition: series mostly up to about 57 µM.

The chains behind the UniProt entries cited, without tags or fusion partners.
UniProt P53350, whole entry, looked up: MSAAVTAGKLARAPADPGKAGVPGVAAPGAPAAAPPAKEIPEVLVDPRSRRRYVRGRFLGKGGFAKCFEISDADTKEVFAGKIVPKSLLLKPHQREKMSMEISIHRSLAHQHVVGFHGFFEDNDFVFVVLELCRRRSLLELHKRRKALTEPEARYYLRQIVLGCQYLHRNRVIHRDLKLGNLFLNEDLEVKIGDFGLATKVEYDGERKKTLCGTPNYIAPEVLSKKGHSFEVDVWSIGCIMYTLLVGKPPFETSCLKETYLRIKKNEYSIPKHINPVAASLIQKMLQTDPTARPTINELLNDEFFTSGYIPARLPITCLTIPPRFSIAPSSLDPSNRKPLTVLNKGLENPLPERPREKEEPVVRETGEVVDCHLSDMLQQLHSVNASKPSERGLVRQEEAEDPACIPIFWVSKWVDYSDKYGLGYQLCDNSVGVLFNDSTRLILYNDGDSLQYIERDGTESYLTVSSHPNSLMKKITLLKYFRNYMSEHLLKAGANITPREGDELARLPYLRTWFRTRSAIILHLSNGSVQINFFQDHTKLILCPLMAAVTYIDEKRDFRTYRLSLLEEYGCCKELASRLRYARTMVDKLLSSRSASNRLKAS

These compounds were tested against Serine/threonine-protein kinase PLK1 (Homo sapiens) (UniProt P53350) (assay: qHTS for Inhibitors of PLK1-PDB (polo-like kinase 1 - polo-box domain): Primary Screen). Settings: Plk1 PBD binding of FITC phosphopeptide, fluorescence polarization.
For `N#Cc1ccccc1OCCCN1CCC(C(O)(c2ccccc2)c2ccccc2)CC1`, the max response, negative = inhibition was inactive: 4.63%. With `CCOC(=O)[C@H]1[C@H]2COc3ccc(OC)cc3[C@@H]2N2C(=O)c3ccccc3NC(=O)[C@@]12C` the max response, negative = inhibition was inactive: -17.4%. `O=C(Nc1ccc(SC(F)F)cc1)c1ccc2nccnc2c1` was tested, and the Potency was inconclusive: 23.8 µM [inhibitor, partial curve]. In the case of `C/C(=N\Nc1nc2ccccc2[nH]1)c1ccc2c(c1)OCO2`, the max response, negative = inhibition was inactive: -21.1%. `Brc1ccccc1C1=Nn2c(nnc2-c2ccccc2)SC1` was tested, and the Potency was inconclusive: 23.8 µM [inhibitor, single point]. For `COc1ccc(C(=O)Nc2ncc(C)s2)cc1S(=O)(=O)N1CCCC1`, the Potency was inconclusive: 26.7 µM [inhibitor, single point]. With `c1ccc2oc(-c3nn4c(Cn5cnc6ccccc65)nnc4s3)cc2c1` the Potency was inconclusive: 33.6 µM [inhibitor, partial curve]. For `Fc1ccc(/C=N/n2c(-c3cccs3)n[nH]c2=S)cc1`, the Potency was inconclusive: 18.9 µM [inhibitor, partial curve]. `CCOC(=O)NC(NC(=S)Nc1ccccc1OC)C(Cl)(Cl)Cl` (configuration not stated) was tested, and the Potency was inconclusive: 23.8 µM [inhibitor, partial curve]. In the case of `COc1ccccc1CN1C(=O)c2ccccc2C1C(=O)NC1CCC(C)CC1` (configuration not stated), the Potency was active: 18.9 µM. In the case of `O=C(c1ccc(F)cc1)n1cc(C(=S)N2CCOCC2)c2ccccc21`, the Potency was inconclusive: 26.7 µM [inhibitor, partial curve]. `CCOc1c(C)cnc2c1c(=O)n(Cc1c(F)cccc1Cl)c(=O)n2C` was tested, and the max response, negative = inhibition was inconclusive: -12.3% [inhibitor]. `Cc1nc2ccccc2c(C)c1C(=O)c1ccccc1` was tested, and the Potency was active: 23.8 µM. For `COc1cc(/C=N/NC(=O)c2cc(O)cc(O)c2)ccc1OC(=O)c1ccccc1`, the Potency was inconclusive: 26.7 µM [inhibitor, partial curve]. For `CCn1c(C)cc(C=C2C(=O)c3ccccc3C2=O)c1C`, the Potency was inconclusive: 21.2 µM [inhibitor, partial curve]. In the case of `Cc1csc(=O)n1CCC(=O)OCC(=O)Nc1ncc(Cl)cc1Cl`, the Potency was inconclusive: 23.8 µM [inhibitor, single point]. In the case of `CCC(C)(C)C1CCc2c(sc(NC(=O)c3ccccc3C(=O)O)c2C#N)C1` (configuration not stated), the Potency was active: 26.7 µM. `CSc1ccc(C=NNc2ccc(S(=O)(=O)Nc3ccccc3C(=O)O)cc2[N+](=O)[O-])cc1` was tested, and the Potency was inconclusive: 18.9 µM [inhibitor, partial curve]. In the case of `COC(=O)C1=C(N)Oc2cc(C)[nH]c(=O)c2C1c1ccc(Cl)cc1` (configuration not stated), the Potency was active: 23.8 µM. For `COC(=O)[C@@]12C[C@@H](CC(=O)NCc3cccc4ccccc34)C(=O)N(Cc3ccco3)C1=CCC(C)(C)C2`, the max response, negative = inhibition was inactive: -6.23%. `Cc1ccc(COC[C@H](CC(C)C)N2CCN(C(=O)c3cccc(C(F)(F)F)c3)CCC2=O)cc1` was tested, and the max response, negative = inhibition was inactive: 5.38%. With `COc1cc(/C=C(\C#N)C(=O)NCc2ccccc2)ccc1OCc1ccc(C(=O)O)cc1` the Potency was active: 18.9 µM. With `O=C(CC1C(=O)N(c2ccccc2)C(=O)N1Cc1ccco1)Nc1ccccc1` (configuration not stated) the Potency was inconclusive: 37.7 µM [inhibitor, partial curve]. `O=C(c1ccccc1-c1ncc[nH]1)N1CCc2c([nH]c3ccccc23)C1c1ccccn1` (configuration not stated) was tested, and the max response, negative = inhibition was inactive: -10.5%. `COc1ccc(C(=O)C=Cc2cccs2)c(O)c1` was tested, and the max response, negative = inhibition was inactive: -2.6%. With `CSc1nnc(C(C)(C)C)c(=O)n1/N=C/c1ccccc1O` the Potency was active: 23.8 µM. In the case of `COc1ccc(OC)c(NC(=O)COC(=O)c2cc3c(s2)CCC3)c1`, the Potency was inconclusive: 29.9 µM [inhibitor, partial curve]. `COC(=O)c1cc(NC(=O)Cc2cccs2)cc(C(=O)OC)c1` was tested, and the Potency was inconclusive: 29.9 µM [inhibitor, partial curve]. With `CC(=O)C1=C(O)C(=O)N(c2cc(C(C)(C)C)on2)C1c1ccc(Br)cc1` (configuration not stated) the Potency was inconclusive: 26.7 µM [inhibitor, single point]. For `COc1ccc2cnn(CCOc3cc(C)ccc3C(C)C)c(=O)c2c1OC`, the max response, negative = inhibition was inactive: -6.13%. With `C=CCn1c(=S)[nH]c2sc3c(c2c1=O)CCC3` the Potency was inconclusive: 29.9 µM [inhibitor, single point]. In the case of `CCCCOC(=O)CSc1nc2ccccc2o1`, the Potency was inconclusive: 15 µM [inhibitor, partial curve]. `Cc1cc(O)c(C(=O)/C=C/c2cccc([N+](=O)[O-])c2)c(=O)o1` was tested, and the Potency was inconclusive: 42.3 µM [inhibitor, partial curve, poor fit]. For `Cc1ccc(S(=O)(=O)N2CCCCC2)cc1NC(=O)CSc1ncccn1`, the Potency was inconclusive: 29.9 µM [inhibitor, partial curve]. In the case of `O=C(O)CCc1ccc(-c2ccc(Br)cc2)n1Cc1ccco1`, the Potency was inconclusive: 21.2 µM [inhibitor, single point]. `COCCN(C(=O)Cc1cccs1)C(C(=O)NCc1ccc(OC)cc1)c1ccc(C(C)C)cc1` (configuration not stated) was tested, and the max response, negative = inhibition was inactive: -0.627%. With `O=C(O)/C(=C\c1ccc(-c2ccc(F)cc2)o1)c1ccccc1` the Potency was inconclusive: 26.7 µM [inhibitor, partial curve]. For `COc1ccc(S(=O)(=O)CCC(=O)NC2CCCCC2)cc1`, the Potency was active: 29.9 µM. For `CCOC(=O)c1c(C)[nH]c(C)c1C(=O)COC(=O)Cc1n[nH]c(=O)c2ccccc12`, the max response, negative = inhibition was inactive: 1.89%. In the case of `O=[n+]1cc(-c2ccccc2)n([O-])c2c1CCC2`, the Potency was inconclusive: 26.7 µM [inhibitor, single point]. With `CCOc1cc(CNc2ccc(Br)cc2)cc(Br)c1OCC(=O)NC(C)(C)C` the max response, negative = inhibition was inactive: -6.69%. `O=[N+]([O-])c1ccc2c(c1)-c1ccccc1C2O` (configuration not stated) was tested, and the Potency was active: 8.44 µM. In the case of `COc1ccc2cc(C(=O)CS(=O)(=O)c3ccccc3)c(=O)oc2c1`, the max response, negative = inhibition was inactive: -18.1%. With `C[n+]1cn(Cc2ccc(C#N)cc2)c2ccccc21` the max response, negative = inhibition was inactive: -2.13%. In the case of `O=C(CCN1C(=O)C2C3C=CC(C3)C2C1=O)Nc1nccs1` (configuration not stated), the Potency was active: 29.9 µM. In the case of `COC(=O)C(NS(=O)(=O)c1ccc(C)cc1)c1ccccc1` (configuration not stated), the max response, negative = inhibition was inactive: -8.86%. `COc1cc(Cl)ccc1NC(=S)N(CCCN1CCOCC1)Cc1cn(C)c2ccccc12` was tested, and the Potency was active: 5.32 µM. For `COC(=O)C1=C(C)N(Cc2ccc(OC)c(OC)c2)C(=O)C1`, the Potency was active: 21.2 µM. With `O=C(O)c1ccc(S(=O)(=O)c2ccc([N+](=O)[O-])cc2[N+](=O)[O-])cc1` the Potency was active: 8.44 µM. For `CCCOc1ccccc1NC(=O)Nc1ccccc1Cl`, the max response, negative = inhibition was inactive: -8.93%. For `Cc1sc2nc(-c3ccccn3)[nH]c(=O)c2c1-c1ccccc1`, the Potency was active: 18.9 µM. With `O=C(Nc1ccc(Cl)cc1)C(Cl)C(=O)c1ccccc1` (configuration not stated) the Potency was active: 0.597 µM. `CCOc1ccc(NC(=S)N2CCC(C(=O)c3ccc(F)cc3)CC2)cc1` was tested, and the Potency was inconclusive: 21.2 µM [inhibitor, partial curve]. `COc1ccc(Cl)cc1NC(=O)CSc1nc(NS(=O)(=O)c2ccccc2)cc(=O)[nH]1` was tested, and the max response, negative = inhibition was inactive: -15.6%. In the case of `CC1C/C(=C\c2cccnc2)C(=O)/C(=C/c2cccnc2)C1` (configuration not stated), the max response, negative = inhibition was inactive: -14.2%. `CC(NC(=O)NC(=O)c1ccc(Cl)cc1Cl)C1CC1` (configuration not stated) was tested, and the Potency was inconclusive: 18.9 µM [inhibitor, partial curve]. In the case of `O=C(c1ccco1)N1CCN(C(=O)c2snc3ccc(Cl)cc23)CC1`, the Potency was inconclusive: 29.9 µM [inhibitor, partial curve]. With `COC(=O)c1ccc(COC(=O)CNC(=O)CNC(=O)c2ccc(OC)cc2)cc1` the Potency was inconclusive: 37.7 µM [inhibitor, single point]. For `Cc1[nH]n(-c2ccccc2)c(=O)c1C(c1ccc(O)c([N+](=O)[O-])c1)c1c(C)[nH]n(-c2ccccc2)c1=O`, the Potency was active: 23.8 µM. With `CCCCn1c2ccc(F)cc2c2nnc(SCCN3CCOCC3)nc21` the Potency was inconclusive: 13.4 µM [inhibitor, partial curve]. In the case of `CCOc1ccc(N2C(=O)CC(N3CCN(c4ccccc4F)CC3)C2=O)cc1` (configuration not stated), the Potency was active: 26.7 µM. `Cc1ccc(C(=O)N2CCC(C(=O)c3ccc(Cl)cc3)CC2)cc1` was tested, and the max response, negative = inhibition was inactive: -2.67%. In the case of `C[C@@H]1CC=C[C@H]2[C@H]1C(=O)N(Cc1ccccc1)[C@H]2c1ccc(F)c(-c2ccc(N(C)C)cc2)c1`, the Potency was inconclusive: 42.3 µM [inhibitor, partial curve, poor fit]. `Oc1c(N=NC(=S)Nc2ccccc2F)c2ccccc2n1Cc1ccc(F)cc1` was tested, and the Potency was inconclusive: 23.8 µM [inhibitor, single point]. `Cc1ccc(SCC(=O)Nc2ccc(S(N)(=O)=O)cc2)cc1` was tested, and the max response, negative = inhibition was inconclusive: -30.7% [inhibitor]. With `O=[N+]([O-])c1ccc(S(=O)(=O)Nc2ccc(S(=O)(=O)N3CCCC3)cc2)cc1` the max response, negative = inhibition was inactive: -5.87%. For `CC1C=CC(C)C(C(=O)O)C1C(=O)O` (configuration not stated), the Potency was inconclusive: 29.9 µM [inhibitor, partial curve]. In the case of `COc1ccc(N2C(=O)[C@@H]3[C@H](C2=O)[C@H]2c4ccccc4C=CN2[C@@H]3C(C)=O)cc1`, the Potency was inconclusive: 29.9 µM [inhibitor, partial curve]. For `NC(=O)Cn1cnc2c(nnn2-c2ccc(F)cc2)c1=O`, the Potency was active: 26.7 µM. For `CCN(C(=O)COC(=O)CNC(=O)c1ccc(C)c(C)c1)C1CCS(=O)(=O)C1` (configuration not stated), the Potency was inconclusive: 9.47 µM [inhibitor, partial curve]. With `COc1cc([N+](=O)[O-])ccc1NC(=S)NC(=O)CC(C)(C)C` the Potency was active: 26.7 µM. With `COc1ccc(NS(=O)(=O)c2ccc(Oc3cccc(C(=O)O)c3)cc2)cc1` the Potency was inconclusive: 21.2 µM [inhibitor, partial curve].
